Data on four molecules can be found in PMC7319964, “The MiDAC histone deacetylase complex is essential for embryonic development and has a unique multivalent structure” (Nature Communications, 2020).

Chains of the proteins cited; added tags and fusions are not shown.
UniProt Q13547: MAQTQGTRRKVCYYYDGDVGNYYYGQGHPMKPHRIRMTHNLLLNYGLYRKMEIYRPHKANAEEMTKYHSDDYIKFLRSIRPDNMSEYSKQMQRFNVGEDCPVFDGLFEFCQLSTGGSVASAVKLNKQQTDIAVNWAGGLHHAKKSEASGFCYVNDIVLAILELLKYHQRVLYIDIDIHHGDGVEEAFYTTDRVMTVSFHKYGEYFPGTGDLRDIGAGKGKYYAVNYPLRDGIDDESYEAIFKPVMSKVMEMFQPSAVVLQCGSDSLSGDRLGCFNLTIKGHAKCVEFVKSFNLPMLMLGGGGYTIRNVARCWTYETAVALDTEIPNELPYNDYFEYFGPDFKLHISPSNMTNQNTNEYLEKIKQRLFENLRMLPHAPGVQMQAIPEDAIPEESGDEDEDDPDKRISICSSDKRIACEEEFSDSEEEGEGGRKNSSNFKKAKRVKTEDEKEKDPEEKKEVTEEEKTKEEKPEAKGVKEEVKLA
UniProt Q92769: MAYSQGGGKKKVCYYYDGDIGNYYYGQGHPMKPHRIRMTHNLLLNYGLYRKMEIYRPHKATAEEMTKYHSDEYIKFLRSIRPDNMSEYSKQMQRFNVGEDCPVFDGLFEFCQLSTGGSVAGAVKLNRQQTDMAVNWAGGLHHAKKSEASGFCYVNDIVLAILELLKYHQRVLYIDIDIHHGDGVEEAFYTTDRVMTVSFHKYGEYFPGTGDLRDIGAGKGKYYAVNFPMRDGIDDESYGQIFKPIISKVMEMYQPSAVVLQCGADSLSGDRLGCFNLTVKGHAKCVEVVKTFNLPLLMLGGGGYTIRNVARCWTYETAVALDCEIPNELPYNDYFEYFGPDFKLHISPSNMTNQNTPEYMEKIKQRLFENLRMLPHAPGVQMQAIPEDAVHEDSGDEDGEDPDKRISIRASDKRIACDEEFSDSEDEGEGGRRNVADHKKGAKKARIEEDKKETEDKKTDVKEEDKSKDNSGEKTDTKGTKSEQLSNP

These are yes or no findings as the source states them, for the method shown. For part of these data: In cells and extracts the contact can be indirect. Some entries that bind do so weakly or less than the wild type. For part of these data: Sequences can lack the tags named with a protein.

The target in assay [1] is T1, MIDEAS (human (endogenous in U2OS)) (UniProt Q6PJG2).
T1 sequence: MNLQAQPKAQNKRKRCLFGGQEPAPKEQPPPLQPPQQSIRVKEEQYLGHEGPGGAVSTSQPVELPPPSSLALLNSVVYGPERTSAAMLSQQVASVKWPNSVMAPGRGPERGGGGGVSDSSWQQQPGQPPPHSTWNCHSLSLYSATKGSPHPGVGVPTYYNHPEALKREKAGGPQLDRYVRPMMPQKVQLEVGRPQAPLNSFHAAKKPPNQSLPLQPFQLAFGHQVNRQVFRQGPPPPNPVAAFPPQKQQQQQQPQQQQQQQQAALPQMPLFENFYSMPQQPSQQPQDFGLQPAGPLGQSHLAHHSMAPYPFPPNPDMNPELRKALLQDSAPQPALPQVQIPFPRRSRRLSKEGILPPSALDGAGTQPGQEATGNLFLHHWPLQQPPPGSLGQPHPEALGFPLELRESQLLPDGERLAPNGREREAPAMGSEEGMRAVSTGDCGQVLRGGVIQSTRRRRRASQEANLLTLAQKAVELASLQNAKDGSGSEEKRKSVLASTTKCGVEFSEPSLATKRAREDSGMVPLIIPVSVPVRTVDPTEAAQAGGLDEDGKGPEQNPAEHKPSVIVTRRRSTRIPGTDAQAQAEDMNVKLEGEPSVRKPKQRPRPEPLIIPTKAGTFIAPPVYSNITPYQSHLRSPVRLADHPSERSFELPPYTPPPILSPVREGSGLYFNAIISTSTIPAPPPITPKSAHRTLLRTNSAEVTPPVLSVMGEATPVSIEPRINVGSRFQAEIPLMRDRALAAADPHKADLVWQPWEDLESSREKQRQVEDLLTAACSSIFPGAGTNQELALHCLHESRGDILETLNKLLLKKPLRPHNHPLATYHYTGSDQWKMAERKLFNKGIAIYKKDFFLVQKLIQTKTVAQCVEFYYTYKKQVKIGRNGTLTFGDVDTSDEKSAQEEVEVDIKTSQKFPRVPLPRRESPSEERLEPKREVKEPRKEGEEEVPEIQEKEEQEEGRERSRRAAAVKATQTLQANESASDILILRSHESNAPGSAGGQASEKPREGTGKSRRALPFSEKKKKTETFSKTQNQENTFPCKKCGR
As to the kind of experiment: co-IP; U2OS lysates; rabbit anti-MIDEAS or rabbit anti-DNTTIP1 cross-linked to Dynabeads, 4 °C for 16 h; asynchronous cells and cells blocked 16 h in G1/S (aphidicolin 1.6 µg/ml) or M (nocodazole 3.3 µg/ml); mock IP with rabbit IgG; western blot. A general note: A western blot detects proteins with antibodies after separation by electrophoresis.

Assay [2] concerns the target T2, DNTTIP1 (human (endogenous in U2OS)) (UniProt Q9H147).
T2 sequence: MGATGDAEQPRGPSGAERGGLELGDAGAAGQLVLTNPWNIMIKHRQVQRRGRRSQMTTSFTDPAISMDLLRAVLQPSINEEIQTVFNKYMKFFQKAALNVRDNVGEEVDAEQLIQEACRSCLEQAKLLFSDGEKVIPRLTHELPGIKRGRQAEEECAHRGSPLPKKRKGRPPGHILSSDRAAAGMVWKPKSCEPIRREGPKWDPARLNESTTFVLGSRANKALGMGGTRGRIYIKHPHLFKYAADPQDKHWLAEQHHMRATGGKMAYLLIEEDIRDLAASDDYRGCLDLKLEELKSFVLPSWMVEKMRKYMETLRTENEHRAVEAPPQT
The assay is described as above.

The target in assay [3] is T3, ELM2-SANT domain from MIDEAS (UniProt Q6PJG2).
T3 sequence: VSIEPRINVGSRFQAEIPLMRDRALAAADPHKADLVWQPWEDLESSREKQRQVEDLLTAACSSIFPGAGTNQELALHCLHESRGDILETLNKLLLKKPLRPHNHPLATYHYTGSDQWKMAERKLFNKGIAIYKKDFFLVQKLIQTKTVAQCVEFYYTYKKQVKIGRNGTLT
As to the kind of experiment: cryo-EM structure; complex with full-length DNTTIP1 including the DNA-binding domain; low-resolution maps (~23 Å without symmetry, 16 Å with mask and D2 symmetry); both purified.

Assay [4] addresses T3, ELM2-SANT domain from MIDEAS. As to the kind of experiment: cryo-EM structure; complex of HDAC1, MIDEAS ELM2-SANT and DNTTIP1 lacking the DNA-binding domain; 50 µM SAHA and 50 µM InsP6, glutaraldehyde cross-linked on ice; dimer map ~4 Å (C2) and tetramer map 4.5 Å (D2) from the same grids; both purified.
Assay [5] has as its target T4, MIDEAS-FLAG (mouse (endogenous in E14 ES cells)) (UniProt E9Q2I4).
T4 sequence: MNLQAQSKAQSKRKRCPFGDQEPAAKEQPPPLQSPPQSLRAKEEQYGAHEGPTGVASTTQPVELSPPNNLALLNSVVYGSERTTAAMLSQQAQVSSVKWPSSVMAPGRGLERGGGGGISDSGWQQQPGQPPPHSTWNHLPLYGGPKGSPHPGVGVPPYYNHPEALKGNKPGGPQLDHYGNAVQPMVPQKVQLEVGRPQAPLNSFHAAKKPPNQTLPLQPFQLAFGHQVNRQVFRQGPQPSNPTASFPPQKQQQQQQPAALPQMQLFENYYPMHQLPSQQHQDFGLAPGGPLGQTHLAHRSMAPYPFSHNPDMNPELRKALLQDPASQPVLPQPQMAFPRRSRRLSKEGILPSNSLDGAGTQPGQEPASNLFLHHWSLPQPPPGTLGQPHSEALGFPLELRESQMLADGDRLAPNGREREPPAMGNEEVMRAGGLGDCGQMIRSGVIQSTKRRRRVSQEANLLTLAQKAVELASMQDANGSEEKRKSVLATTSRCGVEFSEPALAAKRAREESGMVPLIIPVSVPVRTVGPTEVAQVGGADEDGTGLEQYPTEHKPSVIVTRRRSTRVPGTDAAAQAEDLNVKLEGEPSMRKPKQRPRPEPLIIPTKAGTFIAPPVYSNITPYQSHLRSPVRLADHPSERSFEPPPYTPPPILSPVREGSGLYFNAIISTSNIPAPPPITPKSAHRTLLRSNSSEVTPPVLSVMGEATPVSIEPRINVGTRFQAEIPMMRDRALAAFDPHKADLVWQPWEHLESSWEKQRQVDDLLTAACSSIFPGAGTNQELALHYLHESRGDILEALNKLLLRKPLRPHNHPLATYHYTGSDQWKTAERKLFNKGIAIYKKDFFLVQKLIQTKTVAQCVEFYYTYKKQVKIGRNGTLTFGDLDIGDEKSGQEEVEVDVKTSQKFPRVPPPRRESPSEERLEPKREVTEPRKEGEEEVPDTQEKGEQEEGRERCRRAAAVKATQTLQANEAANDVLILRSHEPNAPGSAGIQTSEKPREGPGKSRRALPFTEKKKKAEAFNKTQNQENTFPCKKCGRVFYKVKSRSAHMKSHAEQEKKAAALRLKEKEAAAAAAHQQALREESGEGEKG
As to the kind of experiment: co-IP; anti-FLAG IP from MIDEAS-FLAG CRISPR mouse ES cells synchronised with 10 µM RO-3306 for 14 h, then nocodazole (30 ng/ml) for 2 h, harvested at time points after release; western blot.

As to “HDAC1 (from UniProt Q13547 1-482) (enzyme)”, in assay [1], the binding entry is given as “binds”. For the molecule “HDAC2 (from UniProt Q92769 1-488) (enzyme)”, the binding result in assay [2] and in assay [1] was “binds” in each case. As to “full-length HDAC1 (from UniProt Q13547 1-482) (enzyme)”, the binding result in assay [3] and in assay [4] was “binds” throughout.

B1: DNTTIP1 (mouse) (protein, UniProt Q99LB0 1-328)
chain: MGATGDTEQPRGPGGAERGGLELGDAGAAGQPVLTNPWNIMIKHRQVQRRGRRSQMTTSFTDPAISMDLLRAVLQPSINEEIQGVFNKYMKFFQKAALNVRDNVGEEVDAEQLIQEACRSCLEQAKLLFSDGEKVIPRLAHELPGIKRGRQAEEESHRGSPIPKKRKGRPPGHVLSNDRAAAGMVWKQKSCEPIRREGPKWDPARLNESTTFVLGSRANKALGMGGTRGRIYIKHPHLFKYAADPQDKHWLAEQHHMRATGGKMAYLLIEEDIRDLAASDDYRGCLDLKLEELKSFVLPSWMVEKMRKYMETLRTENEHRAAEAPPQT
With B1, the binding entry in assay [5] is listed as “binds”.
